# Reference: paper PMC12431657, “Discovery and mechanistic insights of dibenzoylmethane as a broad spectrum inhibitor of coronavirus” (PLOS Pathogens, 2025)
# Structures can show the parent of a compound that is named as a salt. Where two headings read alike, the source gives them in different places. The whole screen tested about 3,300 compounds, of which about 95 (3%) showed an effect of 50% or more. The list shows a part of the results.
# System: HCoV-229E
# Design: species or system Huh-7; HTS, protection from HCoV-229E induced cell death, luminescent cell viability (CellCounting-Lite 2.0), inhibition rate
# Conditions: 24 h post infection, 1 h compound pre-incubation, 10 µM, inhibitor
Structure (SMILES),229E Inhibition rate [%],"229E Inhibition rate (229E Inhibition rate, 24 h) [%]"
N[C@H](CS)C(=O)O [D-Cysteine],6.6,
Nc1nc2c(ncn2[C@@H]2O[C@H](COP(=O)(O)OP(=O)(O)OP(=O)(O)O)[C@@H](O)[C@H]2O)c(=O)[nH]1 [Guanosine 5'-triphosphate (trisodium salt)],12.4,
O=C(O)c1cc(=O)[nH]c(=O)[nH]1 [Orotic acid],,18.5
O=C(O)Cc1cc(O)ccc1O [Homogentisic acid],10.7,
N[C@@H](CS)C(=O)O [L-Cysteine (hydrochloride)],,8.6
C[C@]1(O)C[C@@H](O)[C@@H]2C=CO[C@@H](O[C@@H]3O[C@H](CO)[C@@H](O)[C@H](O)[C@H]3O)[C@@H]21 [Ajugol],0,
OC[C@H]1O[C@@](CO)(O[C@H]2O[C@H](CO[C@@H]3O[C@H](CO)[C@@H](O)[C@H](O)[C@H]3O)[C@@H](O)[C@H](O)[C@H]2O)[C@@H](O)[C@@H]1O [Gentianose],0,
C=C1C(=O)O[C@@H]2/C=C(\C)[C@@H](OC(C)=O)C/C=C(\COC(C)=O)C[C@@H](OC(=O)/C(C)=C/CO)[C@@H]12 [Eupalinolide A],,35.1
NCCCCCCCC(=O)O [8-Aminooctanoic acid],10,
C=C[C@H]1CN2CC[C@]3(C(=O)Nc4ccccc43)[C@@H]2C[C@@H]1/C(=C\OC)C(=O)OC [Corynoxeine],15.2,
"O=C(/C=C/c1ccc(O)c(O)c1)O[C@@H]1[C@H](O)C[C@@](O)(C(=O)O)C[C@H]1OC(=O)/C=C/c1ccc(O)c(O)c1 [4,5-Dicaffeoylquinic acid]",8.8,
CC(=O)O[C@H]1C[C@H]2C(=O)O[C@H](c3ccoc3)C[C@@]2(C)[C@@H]2C[C@@H]3C[C@@H](C(=O)O3)[C@@H]12 [8-Epidiosbulbin E acetate],10.4,
COc1cc(C(C)=O)ccc1O [Apocynin],5.3,
COC(=O)[C@H]1[C@H]2C[C@@H]3c4[nH]c5cc(OC)ccc5c4CCN3C[C@H]2C[C@@H](OC(=O)c2cc(OC)c(OC)c(OC)c2)[C@@H]1OC [Reserpine],,28
COc1ccc(-c2oc3c(CCC(C)(C)O)c(O[C@@H]4O[C@H](CO)[C@@H](O)[C@H](O)[C@H]4O)cc(O)c3c(=O)c2O)cc1 [Maohuoside A],10.4,
"CC1C(=O)CCC1=O [2-Methylcyclopentane-1,3-dione]",19.8,
C[C@@H]1O[C@@H](O[C@H]2[C@H](O[C@H]3CC[C@]4(C)[C@H]5CC=C6[C@@H]7CC(C)(C)CC[C@]7(C(=O)O[C@@H]7O[C@H](CO[C@@H]8O[C@H](CO)[C@@H](O[C@@H]9O[C@@H](C)[C@H](O)[C@@H](O)[C@H]9O)[C@H](O)[C@H]8O)[C@@H](O)[C@H](O)[C@H]7O)CC[C@@]6(C)[C@]5(C)CC[C@H]4C3(C)C)OC[C@H](O)[C@@H]2O)[C@H](O)[C@H](O)[C@H]1O [Hederasaponin B],12.8,
N[C@@H](Cc1ccc(O)cc1)C(=O)O [L-Tyrosine],4.6,

Structure (SMILES),229E Inhibition rate [%],"229E Inhibition rate (229E Inhibition rate, 24 h) [%]"
O=c1c(O)cc([C@H]2Oc3cc(O)cc(O)c3C[C@H]2O)cc2c([C@H]3Oc4cc(O)cc(O)c4C[C@H]3O)cc(O)c(O)c12 [Theaflavin],10.5,
COc1cc([C@H]2OC[C@@H]3[C@@H]2CO[C@H]3c2cc(OC)c(O[C@@H]3O[C@H](CO)[C@@H](O)[C@H](O)[C@H]3O)c(OC)c2)cc(OC)c1O[C@@H]1O[C@H](CO)[C@@H](O)[C@H](O)[C@H]1O [Eleutheroside E],29,
CC(C)(C)CC(C)(C)c1ccc(O)c(Cc2ccc(Cl)cc2Cl)c1 [Clofoctol],4.5,
O=C(/C=C/c1ccc(O)c(O)c1)O[C@@H](C(=O)O)[C@@H](OC(=O)/C=C/c1ccc(O)c(O)c1)C(=O)O [Chicoric acid],,8
CCCCCCCCCCCCCCCCCCCCCCCC(=O)O [Lignoceric acid],9.2,
C[C@H](CC[C@@H](O[C@@H]1O[C@H](CO)[C@@H](O)[C@H](O)[C@H]1O)C(C)(C)O)[C@H]1CC[C@@]2(C)[C@@H]3CC=C4[C@@H](CC[C@H](O)C4(C)C)[C@]3(C)[C@H](O)C[C@]12C [Mogroside I A1],26.1,
CC1(C)CC[C@]2(CO)CC[C@]3(C)C(=CC[C@@H]4[C@@]5(C)CC[C@H](O)C(C)(C)[C@@H]5CC[C@]43C)[C@@H]2C1 [Erythrodiol],18.3,
C[C@H]1[C@H](C)CC[C@]2(C(=O)O)CC[C@]3(C)C(=CC[C@@H]4[C@@]5(C)C[C@@H](O)[C@H](O)[C@@](C)(CO)[C@@H]5CC[C@]43C)[C@H]12 [Asiatic acid],10,
COc1cc2c(c(OC)c1OC)-c1c(cc3c(c1OC)OCO3)[C@H](OC(=O)c1ccccc1)[C@@](C)(O)[C@@H](C)C2 [Gomisin G],15.9,
O=C(O)/C=C/C=C/C(=O)O [trans-trans-Muconic acid],14.2,
O=C(O)c1ncccc1O [3-Hydroxypicolinic acid],21.6,
COc1ccc(O)c(N)c1 [2-Amino-4-methoxyphenol],9.6,
"O=C(O)C(O)c1ccc(O)c(O)c1 (stereo not drawn) [3,4-Dihydroxymandelic acid]",47.7,
NCCCC[C@H](N)C(=O)O [L-Lysine hydrochloride],,8.4
C[C@@H]1O[C@@H](O[C@H]2[C@H](Oc3cc(O)c4c(c3)O[C@H](c3ccc(O)c(O)c3)CC4=O)O[C@H](CO)[C@@H](O)[C@@H]2O)[C@H](O)[C@H](O)[C@H]1O [Neoeriocitrin],11.2,
O=c1c(-c2ccc(O[C@@H]3O[C@H](CO)[C@@H](O)[C@H](O)[C@H]3O)cc2)coc2cc(O)cc(O)c12 [Sophoricoside],31.3,
CCCCCCCCCCCCCCCC=O [Hexadecanal],36.4,
C[C@H]1O[C@@H](Oc2ccc(COC(=O)CC(O)(CC(=O)OCc3ccc(O[C@@H]4O[C@H](CO)[C@@H](O)[C@H](O)[C@H]4O)cc3)C(=O)Oc3ccc(O[C@H]4O[C@H](CO)[C@@H](O)[C@H](O)[C@H]4O)cc3)cc2)[C@H](O)[C@@H](O)[C@@H]1O (stereo partly drawn) [Parishin],9.7,

# Single entries from above.
# O=C(O)C(O)c1ccc(O)c(O)c1 (stereo not drawn) [3,4-Dihydroxymandelic acid] – 229E Inhibition rate [%]: 47.7
# O=c1c(-c2ccc(O[C@@H]3O[C@H](CO)[C@@H](O)[C@H](O)[C@H]3O)cc2)coc2cc(O)cc(O)c12 [Sophoricoside] – 229E Inhibition rate [%]: 31.3
